Experimental data taken from the supplement of paper PMC10849652.
The other results are listed elsewhere or left out.

Chains of the proteins cited; added tags and fusions are not shown. Lines headed by an entry give the natural chain unless they say otherwise; changes in a name come on top.
UniProt Q9HD20: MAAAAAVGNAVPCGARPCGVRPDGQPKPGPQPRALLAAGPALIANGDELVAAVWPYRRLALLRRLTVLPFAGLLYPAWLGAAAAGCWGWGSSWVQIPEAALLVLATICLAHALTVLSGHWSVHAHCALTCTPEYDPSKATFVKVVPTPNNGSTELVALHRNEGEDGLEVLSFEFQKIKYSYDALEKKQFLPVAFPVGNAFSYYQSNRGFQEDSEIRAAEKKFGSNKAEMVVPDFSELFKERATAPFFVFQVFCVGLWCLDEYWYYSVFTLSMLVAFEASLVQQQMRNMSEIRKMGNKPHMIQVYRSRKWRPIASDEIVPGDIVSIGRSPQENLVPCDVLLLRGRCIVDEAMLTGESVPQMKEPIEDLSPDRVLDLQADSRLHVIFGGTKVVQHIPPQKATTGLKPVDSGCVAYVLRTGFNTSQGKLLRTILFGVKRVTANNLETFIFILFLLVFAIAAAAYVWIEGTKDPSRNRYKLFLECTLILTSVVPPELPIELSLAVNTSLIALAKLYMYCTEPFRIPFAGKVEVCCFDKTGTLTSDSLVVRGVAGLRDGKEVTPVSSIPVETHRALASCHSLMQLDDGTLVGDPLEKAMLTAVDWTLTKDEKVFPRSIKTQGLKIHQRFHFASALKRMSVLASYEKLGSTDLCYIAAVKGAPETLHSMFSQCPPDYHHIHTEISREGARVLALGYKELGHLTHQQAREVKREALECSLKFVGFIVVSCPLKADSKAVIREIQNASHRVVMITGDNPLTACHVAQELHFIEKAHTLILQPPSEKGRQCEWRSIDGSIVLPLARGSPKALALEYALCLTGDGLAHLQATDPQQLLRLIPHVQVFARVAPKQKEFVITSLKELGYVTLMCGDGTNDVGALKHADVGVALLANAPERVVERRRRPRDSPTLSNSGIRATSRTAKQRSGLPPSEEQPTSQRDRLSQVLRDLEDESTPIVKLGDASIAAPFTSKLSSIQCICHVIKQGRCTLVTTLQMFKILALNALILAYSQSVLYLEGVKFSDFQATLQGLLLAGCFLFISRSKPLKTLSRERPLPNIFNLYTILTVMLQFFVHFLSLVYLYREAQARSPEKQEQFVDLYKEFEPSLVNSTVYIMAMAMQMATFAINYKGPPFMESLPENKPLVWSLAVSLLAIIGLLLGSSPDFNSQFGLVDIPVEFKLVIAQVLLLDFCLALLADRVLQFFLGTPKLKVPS
UniProt Q9Y294, whole entry, looked up: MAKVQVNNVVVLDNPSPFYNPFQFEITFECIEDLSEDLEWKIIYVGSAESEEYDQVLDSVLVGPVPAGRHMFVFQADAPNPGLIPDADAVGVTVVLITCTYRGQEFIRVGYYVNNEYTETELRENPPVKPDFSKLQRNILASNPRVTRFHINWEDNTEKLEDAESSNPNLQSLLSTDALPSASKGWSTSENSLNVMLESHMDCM
UniProt Q9UBB4: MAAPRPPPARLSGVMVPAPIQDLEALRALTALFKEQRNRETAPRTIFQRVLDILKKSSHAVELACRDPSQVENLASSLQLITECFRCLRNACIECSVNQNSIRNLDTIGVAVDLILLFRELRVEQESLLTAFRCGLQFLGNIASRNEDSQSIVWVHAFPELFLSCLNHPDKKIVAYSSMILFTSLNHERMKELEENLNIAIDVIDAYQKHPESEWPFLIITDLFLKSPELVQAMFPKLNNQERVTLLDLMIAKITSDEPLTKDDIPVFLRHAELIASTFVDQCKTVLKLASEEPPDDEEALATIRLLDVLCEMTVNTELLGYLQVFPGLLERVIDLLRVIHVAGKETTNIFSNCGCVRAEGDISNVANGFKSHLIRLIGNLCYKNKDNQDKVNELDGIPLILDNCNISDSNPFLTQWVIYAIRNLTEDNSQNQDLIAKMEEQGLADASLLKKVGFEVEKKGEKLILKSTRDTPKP
UniProt P08243: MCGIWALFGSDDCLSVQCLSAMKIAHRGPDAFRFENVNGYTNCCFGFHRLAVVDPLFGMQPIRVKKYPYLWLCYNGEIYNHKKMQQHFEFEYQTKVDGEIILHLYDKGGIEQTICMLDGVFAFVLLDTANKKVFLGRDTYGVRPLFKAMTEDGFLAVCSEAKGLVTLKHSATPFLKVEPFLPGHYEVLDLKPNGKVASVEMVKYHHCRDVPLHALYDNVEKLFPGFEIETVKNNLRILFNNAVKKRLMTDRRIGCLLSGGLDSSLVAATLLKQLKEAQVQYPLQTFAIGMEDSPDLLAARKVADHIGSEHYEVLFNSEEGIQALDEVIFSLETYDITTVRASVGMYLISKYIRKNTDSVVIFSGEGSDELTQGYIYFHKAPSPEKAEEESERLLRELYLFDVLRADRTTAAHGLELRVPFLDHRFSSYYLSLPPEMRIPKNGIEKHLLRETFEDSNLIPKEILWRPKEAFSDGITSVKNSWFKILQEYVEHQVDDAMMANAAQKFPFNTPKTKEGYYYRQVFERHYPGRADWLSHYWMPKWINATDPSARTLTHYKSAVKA
UniProt P15336: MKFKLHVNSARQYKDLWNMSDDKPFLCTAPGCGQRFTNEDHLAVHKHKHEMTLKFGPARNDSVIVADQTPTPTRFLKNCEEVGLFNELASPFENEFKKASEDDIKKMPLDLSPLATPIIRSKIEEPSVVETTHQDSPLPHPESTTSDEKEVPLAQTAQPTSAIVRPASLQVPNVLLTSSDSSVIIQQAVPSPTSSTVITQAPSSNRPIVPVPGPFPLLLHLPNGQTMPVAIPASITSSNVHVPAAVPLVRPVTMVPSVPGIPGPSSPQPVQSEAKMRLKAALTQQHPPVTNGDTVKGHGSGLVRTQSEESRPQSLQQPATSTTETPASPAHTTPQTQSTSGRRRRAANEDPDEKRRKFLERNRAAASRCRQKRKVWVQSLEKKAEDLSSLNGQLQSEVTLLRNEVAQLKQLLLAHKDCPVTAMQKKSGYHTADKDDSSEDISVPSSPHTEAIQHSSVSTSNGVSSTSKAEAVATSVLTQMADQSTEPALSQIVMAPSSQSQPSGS
UniProt P61421, whole entry, looked up: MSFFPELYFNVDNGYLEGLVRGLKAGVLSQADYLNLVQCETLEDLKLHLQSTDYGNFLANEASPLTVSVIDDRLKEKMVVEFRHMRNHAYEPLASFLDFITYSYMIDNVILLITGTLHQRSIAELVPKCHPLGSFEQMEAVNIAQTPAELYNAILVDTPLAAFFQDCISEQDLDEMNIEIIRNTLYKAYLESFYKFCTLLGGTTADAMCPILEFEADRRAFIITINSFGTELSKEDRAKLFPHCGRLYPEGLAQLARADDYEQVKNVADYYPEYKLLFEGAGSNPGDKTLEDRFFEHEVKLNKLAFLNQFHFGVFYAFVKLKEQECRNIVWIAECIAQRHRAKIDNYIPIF
UniProt Q9BZE9, whole entry, looked up: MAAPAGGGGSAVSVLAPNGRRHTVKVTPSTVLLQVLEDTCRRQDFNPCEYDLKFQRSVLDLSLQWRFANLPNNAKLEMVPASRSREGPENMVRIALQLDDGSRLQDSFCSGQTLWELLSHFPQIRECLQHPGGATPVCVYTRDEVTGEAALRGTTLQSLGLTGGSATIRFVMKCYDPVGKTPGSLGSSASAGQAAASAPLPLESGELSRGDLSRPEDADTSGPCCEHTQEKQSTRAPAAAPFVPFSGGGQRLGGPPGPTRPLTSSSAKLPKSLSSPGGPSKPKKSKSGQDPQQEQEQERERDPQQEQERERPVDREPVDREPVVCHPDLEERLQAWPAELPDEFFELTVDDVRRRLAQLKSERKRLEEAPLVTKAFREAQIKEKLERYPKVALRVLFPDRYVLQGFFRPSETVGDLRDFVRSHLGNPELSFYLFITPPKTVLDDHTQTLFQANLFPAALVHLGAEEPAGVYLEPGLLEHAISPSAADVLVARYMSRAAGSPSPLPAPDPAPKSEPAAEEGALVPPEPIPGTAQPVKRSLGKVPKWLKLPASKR
UniProt Q06055: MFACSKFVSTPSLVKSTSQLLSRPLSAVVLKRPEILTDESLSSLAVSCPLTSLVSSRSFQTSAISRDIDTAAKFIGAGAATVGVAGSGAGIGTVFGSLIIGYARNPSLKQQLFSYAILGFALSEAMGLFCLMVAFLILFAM
UniProt P23634: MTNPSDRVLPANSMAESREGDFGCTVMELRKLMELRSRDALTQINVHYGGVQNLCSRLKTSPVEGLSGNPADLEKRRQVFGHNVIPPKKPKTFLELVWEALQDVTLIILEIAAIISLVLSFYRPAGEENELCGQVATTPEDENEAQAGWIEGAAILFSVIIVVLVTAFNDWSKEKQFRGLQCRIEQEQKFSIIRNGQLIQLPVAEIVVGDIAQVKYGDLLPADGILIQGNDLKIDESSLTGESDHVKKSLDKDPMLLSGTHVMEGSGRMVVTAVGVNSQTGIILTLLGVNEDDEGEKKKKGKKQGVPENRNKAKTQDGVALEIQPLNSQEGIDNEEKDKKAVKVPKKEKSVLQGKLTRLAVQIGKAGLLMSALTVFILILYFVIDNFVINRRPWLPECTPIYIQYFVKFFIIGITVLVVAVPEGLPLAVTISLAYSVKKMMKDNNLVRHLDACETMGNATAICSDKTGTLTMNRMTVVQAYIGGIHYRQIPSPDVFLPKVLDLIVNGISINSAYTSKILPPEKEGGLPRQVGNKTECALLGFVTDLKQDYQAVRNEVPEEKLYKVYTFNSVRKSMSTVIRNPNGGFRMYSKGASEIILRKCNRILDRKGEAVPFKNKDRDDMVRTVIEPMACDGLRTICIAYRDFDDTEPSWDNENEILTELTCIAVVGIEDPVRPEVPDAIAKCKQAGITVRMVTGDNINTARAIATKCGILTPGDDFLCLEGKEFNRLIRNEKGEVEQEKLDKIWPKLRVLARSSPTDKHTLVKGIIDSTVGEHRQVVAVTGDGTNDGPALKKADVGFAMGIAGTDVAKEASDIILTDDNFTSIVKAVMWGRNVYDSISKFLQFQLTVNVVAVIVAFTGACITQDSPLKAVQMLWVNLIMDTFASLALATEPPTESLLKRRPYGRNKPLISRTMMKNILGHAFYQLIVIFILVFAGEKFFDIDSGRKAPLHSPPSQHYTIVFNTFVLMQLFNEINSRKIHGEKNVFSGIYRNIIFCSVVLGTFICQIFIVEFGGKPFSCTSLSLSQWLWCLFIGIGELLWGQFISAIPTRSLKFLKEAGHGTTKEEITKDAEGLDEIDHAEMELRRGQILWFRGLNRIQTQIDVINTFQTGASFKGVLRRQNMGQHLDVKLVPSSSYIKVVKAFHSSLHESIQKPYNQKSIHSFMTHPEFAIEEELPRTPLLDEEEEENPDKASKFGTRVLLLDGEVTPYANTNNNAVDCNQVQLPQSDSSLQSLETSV
UniProt Q9NQ11: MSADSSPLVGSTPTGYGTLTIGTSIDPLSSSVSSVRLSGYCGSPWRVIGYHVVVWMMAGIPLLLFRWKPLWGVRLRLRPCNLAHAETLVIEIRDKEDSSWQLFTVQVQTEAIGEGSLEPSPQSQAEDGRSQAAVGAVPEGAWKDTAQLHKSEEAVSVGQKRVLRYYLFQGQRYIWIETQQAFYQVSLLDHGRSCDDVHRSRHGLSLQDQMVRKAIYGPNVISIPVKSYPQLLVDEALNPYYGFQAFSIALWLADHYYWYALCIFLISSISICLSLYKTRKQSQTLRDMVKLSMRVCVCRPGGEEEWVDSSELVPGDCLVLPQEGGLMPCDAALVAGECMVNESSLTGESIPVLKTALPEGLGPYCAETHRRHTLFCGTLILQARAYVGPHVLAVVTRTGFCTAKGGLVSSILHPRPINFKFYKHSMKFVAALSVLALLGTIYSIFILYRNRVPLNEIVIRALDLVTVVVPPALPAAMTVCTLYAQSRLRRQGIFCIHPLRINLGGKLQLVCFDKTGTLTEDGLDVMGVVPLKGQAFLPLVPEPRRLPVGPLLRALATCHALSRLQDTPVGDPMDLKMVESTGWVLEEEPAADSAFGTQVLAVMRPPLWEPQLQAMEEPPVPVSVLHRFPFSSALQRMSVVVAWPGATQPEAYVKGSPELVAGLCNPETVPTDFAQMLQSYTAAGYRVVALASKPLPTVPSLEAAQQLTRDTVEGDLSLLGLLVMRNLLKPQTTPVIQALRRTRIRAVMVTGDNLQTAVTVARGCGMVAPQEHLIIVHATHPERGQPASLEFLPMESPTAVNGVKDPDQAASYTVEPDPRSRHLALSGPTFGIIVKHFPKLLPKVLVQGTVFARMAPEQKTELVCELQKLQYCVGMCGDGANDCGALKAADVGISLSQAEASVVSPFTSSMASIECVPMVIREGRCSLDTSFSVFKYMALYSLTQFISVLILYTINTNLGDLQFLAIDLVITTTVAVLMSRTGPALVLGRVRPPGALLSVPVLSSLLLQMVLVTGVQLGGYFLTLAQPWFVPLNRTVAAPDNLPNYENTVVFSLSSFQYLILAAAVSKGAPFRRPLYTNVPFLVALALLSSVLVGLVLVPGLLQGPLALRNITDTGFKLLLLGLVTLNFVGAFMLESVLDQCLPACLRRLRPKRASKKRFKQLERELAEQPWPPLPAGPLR
UniProt Q96IX5: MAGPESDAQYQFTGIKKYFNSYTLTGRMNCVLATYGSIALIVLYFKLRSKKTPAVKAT

Tests used:
Experiment in all cases: log2 fold change, soluble protein after heating vs DMSO (PISA); higher = thermal stabilisation; K562 lysate, 10 uM; active = over 0.2 and 3.5 SD of the protein, either way, in both replicates (recomputed)
erlotinib = compound: C#Cc1cccc(Nc2ncnc3cc(OCCOC)c(OCCOC)cc23)c1 [erlotinib]
Outline: (§1)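 Quantification was by TMTpro 16plex LC-MS/MS with equalised channel sums, applied to the supernatant after 21,000xg for 90 min. Samples were crude K562 extract at 1 mg/mL protein in PBS pH 7.4 with 1 mM MgCl2, treated with 10 μM compound for 30 min, heated for 3 min across 48°C-58°C, pooled and brought to 0.5% NP-40 at 4°C. Values are log-two fold changes in thermal stability relative to solvent controls, from duplicates.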

[1] = compound: C/C(=N\NC(=O)C1=CC(=CC=C1)S(=O)(=O)N2CCOCC2)/C3=C(C=CC(=C3)Cl)O
Outline: as §1

[2] = compound: C1=CC(=CC=C1C2=NC3=C(N2)C=C(C=C3)C(=O)N)OC4=CC=C(C=C4)Cl
Outline: as §1

[3] = compound: C1=CC2=C(C=CC(=C2)/C=C\3/C(=O)NC(=NCC4=CC=CS4)S3)N=C1
Outline: as §1

[4] = compound: C1=CC2=NC=CN=C2C=C1/C=C/3\C(=O)NC(=O)S3
Outline: as §1

[5] = compound: C1=CC=C(C=C1)C2=NC(=C(N2)C3=CC=NC=C3)C4=CC(=C(C=C4)Cl)O
Outline: as §1

[6] = compound: C1=CC=C2C(=C1)C3=NNC4=CC=CC(=C43)C2=O
Outline: as §1

[7] = compound: C1CCN(C1)C(=O)NC2=CC=CC(=C2)NC3=NC=C(C(=N3)NCCC4=CN=CN4)Br
Outline: as §1

[8] = compound: C1CN(CCC1(CC2=CC=C(C=C2)Cl)N)C3=NC=NC4=C3C=CN4
Outline: as §1

IRAK-1-4 Inhibitor I = compound: C1COCCN1CCN2C3=CC=CC=C3N=C2NC(=O)C4=CC(=CC=C4)[N+](=O)[O-] [IRAK-1-4 Inhibitor I]
Outline: as §1

ibrutinib = compound: C=CC(=O)N1CCC[C@@H](n2nc(-c3ccc(Oc4ccccc4)cc3)c3c(N)ncnc32)C1 [ibrutinib]
Outline: as §1

[9] = compound: CC(=O)c1cnc2ccc(-c3cc(Cl)c(O)c(Cl)c3)nc2c1N[C@H]1CC[C@H](CN(C)C)CC1
Outline: as §1

ralimetinib = compound: CC(C)(C)Cn1c(N)nc2ccc(-c3[nH]c(C(C)(C)C)nc3-c3ccc(F)cc3)nc21 [ralimetinib]
Outline: as §1

[10] = compound: CC(C)(O)CC(=O)NCCn1ccc2ncnc(Nc3ccc(Oc4cccc(C(F)(F)F)c4)c(Cl)c3)c21
Outline: as §1

[11] = compound: CC(C)C1=C2N=C(C=C(N2N=C1)NCC3=CC=CC=C3)NCCCCCCN
Outline: as §1

[12] = compound: CC1=C(C(CC(=O)N1)C2=CC=C(C=C2)C(F)(F)F)C(=O)NC3=C(C=C4C(=C3)C=NN4)F
Outline: as §1

[13] = compound: CC1=C(C2=C(C=C1)C(=O)C3=CC=CC=C3N2CCCN)C
Outline: as §1

[14] = compound: CC1=C(C=C(C=C1)NC(=O)C2=CC(=CC=C2)C(C)(C)C#N)NC3=CC4=C(C=C3)N=CN(C4=O)C
Outline: as §1

[15] = compound: CC1=C(C=C(C=C1)NC(=O)C2=CC(=CC=C2)N(C)C)NC(=O)C3=CC=C(C=C3)O
Outline: as §1

[16] = compound: CC1=CC=C(C=C1)SC2=C3C=C(SC3=CN=C2)C(=O)N
Outline: as §1

Measured: log2 fold change

ATG16L1 (UniProt Q676U5)
inactive: erlotinib -0.006 | [1] -0.123 | [2] -0.074 | [3] -0.043 | [4] -0.013 | [5] 0.023 | [6] 0.067 | [7] 0.012 | [8] -0.012 | IRAK-1-4 Inhibitor I 0.009 | ibrutinib 0.043 | [9] 0.015 | ralimetinib 0.013 | [10] -0.035 | [11] 0.002 | [12] -0.01 | [13] -0.005 | [14] 0.001 | [15] -0.031 | [16] 0.006

ATP13A1 (UniProt Q9HD20)
inactive: erlotinib 0.02 | [1] -0.09 | [2] -0.153 | [3] 0.024 | [4] -0.026 | [5] 0.02 | [6] -0.054 | [7] -0.04 | [8] 0.033 | IRAK-1-4 Inhibitor I 0.015 | ibrutinib -0.021 | [9] 0.048 | ralimetinib 0.029 | [10] -0.104 | [11] 0.036 | [12] 0.005 | [13] -0.089 | [14] -0.108 | [15] 0.062 | [16] 0.007

ASF1A (UniProt Q9Y294)
inactive: erlotinib -0.014 | [1] -0.105 | [2] 0.006 | [3] 0.044 | [4] 0.009 | [5] 0.005 | [6] 0.002 | [7] -0.021 | [8] -0.013 | IRAK-1-4 Inhibitor I 0.006 | ibrutinib -0.059 | [9] 0.009 | ralimetinib 0.005 | [10] -0.025 | [11] -0.031 | [12] -0.003 | [13] 0.005 | [14] 0.029 | [15] -0.015 | [16] -0.015

ATP6V1E2 (UniProt Q96A05)
inactive: erlotinib -0.011 | [1] -0.025 | [2] 0.028 | [3] -0.039 | [4] -0.006 | [5] -0.016 | [6] -0.102 | [7] -0.014 | [8] -0.002 | IRAK-1-4 Inhibitor I 0.013 | ibrutinib 0.007 | [9] -0.028 | ralimetinib -0.036 | [10] 0.007 | [11] 0.015 | [12] -0.042 | [13] -0.012 | [14] 0.004 | [15] -0.054 | [16] -0.03

ATG3 (UniProt Q9NT62)
inactive: erlotinib -0.013 | [1] -0.014 | [2] 0.008 | [3] 0.01 | [4] -0.009 | [5] 0.016 | [6] 0.008 | [7] -0.007 | [8] -0.031 | IRAK-1-4 Inhibitor I -0.027 | ibrutinib 0.003 | [9] 0.01 | ralimetinib 0.024 | [10] 0.006 | [11] -0.013 | [12] 0.005 | [13] 0.034 | [14] 0.01 | [15] 0.01 | [16] -0.014

ATXN10 (UniProt Q9UBB4)
inactive: erlotinib 0.031 | [1] -0.031 | [2] 0.003 | [3] 0.031 | [4] 0.015 | [5] 0.012 | [6] -0.025 | [7] -0.007 | [8] 0.021 | IRAK-1-4 Inhibitor I 0.013 | ibrutinib 0.001 | [9] -0.013 | ralimetinib -0.002 | [10] -0.051 | [11] -0.027 | [12] -0.022 | [13] 0.001 | [14] 0.011 | [15] 0.009 | [16] -0.013

ASNS (UniProt P08243)
inactive: erlotinib 0.024 | [1] 0.067 | [2] -0.019 | [3] -0.007 | [4] 0.017 | [5] -0.023 | [6] -0.018 | [7] 0.016 | [8] 0.038 | IRAK-1-4 Inhibitor I 0.011 | ibrutinib 0.012 | [9] 0.015 | ralimetinib -0.014 | [10] 0.012 | [11] 0.052 | [12] -0.017 | [13] 0.04 | [14] 0.016 | [15] 0.014 | [16] 0.047

ATF2 (UniProt P15336)
inactive: erlotinib -0.076 | [1] 0.41 | [2] -0.035 | [3] -0.037 | [4] 0.001 | [5] 0.025 | [6] -0.055 | [7] -0.011 | [8] -0.012 | IRAK-1-4 Inhibitor I 0.023 | ibrutinib -0.027 | [9] -0.054 | ralimetinib 0.004 | [10] -0.012 | [11] 0.048 | [12] 0.064 | [13] -0.02 | [14] -0.028 | [15] 0.021 | [16] 0.081

ATP6V0D1 (UniProt P61421)
inactive: erlotinib 0.007 | [1] 0.014 | [2] -0.057 | [3] 0.014 | [4] -0.03 | [5] 0.009 | [6] 0.059 | [7] -0.052 | [8] 0.011 | IRAK-1-4 Inhibitor I -0.011 | ibrutinib 0.037 | [9] -0.048 | ralimetinib -0.008 | [10] -0.01 | [11] -0.017 | [12] -0.056 | [13] 0.034 | [14] 0.016 | [15] -0.023 | [16] 0.045

ASCC1 isoform 2 (UniProt Q8N9N2)
inactive: erlotinib 0.005 | [1] -0.042 | [2] -0.007 | [3] 0.025 | [4] -0.011 | [5] -0.012 | [6] -0.012 | [7] -0.061 | [8] 0.009 | IRAK-1-4 Inhibitor I -0.011 | ibrutinib -0.026 | [9] -0.014 | ralimetinib -0.012 | [10] 0.023 | [11] -0.03 | [12] -0.04 | [13] -0.015 | [14] 0.05 | [15] 0.009 | [16] -0.002

ASPSCR1 (UniProt Q9BZE9)
inactive: erlotinib 0.007 | [1] 0.069 | [2] -0.032 | [3] -0.031 | [4] -0.04 | [5] 0.002 | [6] -0.024 | [7] -0.037 | [8] 0 | IRAK-1-4 Inhibitor I -0.011 | ibrutinib 0.002 | [9] -0.02 | ralimetinib 0 | [10] -0.005 | [11] -0.009 | [12] -0.042 | [13] -0.026 | [14] -0.022 | [15] 0.004 | [16] 0.026

ATP5MC2 isoform 2 (UniProt Q06055)
inactive: erlotinib 0.022 | [1] 0.053 | [2] -0.016 | [3] -0.013 | [4] -0.027 | [5] 0.006 | [6] 0 | [7] -0.044 | [8] 0.042 | IRAK-1-4 Inhibitor I 0.105 | ibrutinib 0.019 | [9] -0.016 | ralimetinib 0.057 | [10] -0.194 | [11] 0.057 | [12] -0.04 | [13] 0.031 | [14] 0.081 | [15] -0.01 | [16] 0.011

ATP2B4 (UniProt P23634)
inactive: erlotinib 0.021 | [1] 0.023 | [2] 0.012 | [3] 0.024 | [4] 0.019 | [5] -0.015 | [6] -0.018 | [7] 0.017 | [8] 0.045 | IRAK-1-4 Inhibitor I -0.028 | ibrutinib 0.06 | [9] -0.026 | ralimetinib -0.056 | [10] -0.029 | [11] -0.018 | [12] 0.033 | [13] -0.034 | [14] 0.089 | [15] 0.051 | [16] -0.003

ATP13A2 (UniProt Q9NQ11)
inactive: erlotinib 0.013 | [1] 0 | [2] 0 | [3] 0.023 | [4] 0.008 | [5] 0.024 | [6] -0.006 | [7] 0.006 | [8] 0.013 | IRAK-1-4 Inhibitor I 0.078 | ibrutinib 0.003 | [9] 0.016 | ralimetinib 0.025 | [10] -0.062 | [11] 0.004 | [12] -0.053 | [13] 0.031 | [14] -0.044 | [15] -0.016 | [16] 0.023

ATP11B (UniProt Q9Y2G3)
inactive: erlotinib -0.003 | [1] -0.039 | [2] -0.028 | [3] -0.023 | [4] 0.004 | [5] -0.012 | [6] -0.036 | [7] 0.006 | [8] -0.006 | IRAK-1-4 Inhibitor I 0.01 | ibrutinib -0.007 | [9] 0.007 | ralimetinib 0.041 | [10] -0.007 | [11] -0.022 | [12] -0.007 | [13] -0.004 | [14] -0.008 | [15] 0.015 | [16] -0.011

ATP5MD (UniProt Q96IX5)
inactive: erlotinib -0.079 | [1] -0.008 | [2] -0.001 | [3] 0.034 | [4] 0.06 | [5] 0.01 | [6] 0.06 | [7] -0.041 | [8] -0.025 | IRAK-1-4 Inhibitor I -0.032 | ibrutinib 0.024 | [9] 0.033 | ralimetinib -0.001 | [10] 0.062 | [11] -0.024 | [12] 0.001 | [13] -0.053 | [14] 0.016 | [15] 0.015 | [16] -0.005

2 records drawn at random from those above, as already listed:
ATP13A2 (UniProt Q9NQ11)
inactive: erlotinib 0.013 | [1] 0 | [2] 0 | [3] 0.023 | [4] 0.008 | [5] 0.024 | [6] -0.006 | [7] 0.006 | [8] 0.013 | IRAK-1-4 Inhibitor I 0.078 | ibrutinib 0.003 | [9] 0.016 | ralimetinib 0.025 | [10] -0.062 | [11] 0.004 | [12] -0.053 | [13] 0.031 | [14] -0.044 | [15] -0.016 | [16] 0.023

ATP11B (UniProt Q9Y2G3)
inactive: erlotinib -0.003 | [1] -0.039 | [2] -0.028 | [3] -0.023 | [4] 0.004 | [5] -0.012 | [6] -0.036 | [7] 0.006 | [8] -0.006 | IRAK-1-4 Inhibitor I 0.01 | ibrutinib -0.007 | [9] 0.007 | ralimetinib 0.041 | [10] -0.007 | [11] -0.022 | [12] -0.007 | [13] -0.004 | [14] -0.008 | [15] 0.015 | [16] -0.011
